Results: patent publication US5478808A (Takeda Chemical Industries, Ltd., priority 1992, dated 1995)

Assay: general procedure: solution-phase peptide synthesis; HONB/DCC; HOBT/WSC; HONB/DIC

In the case of “(2R,6R)-2-Fmoc-amino-6,7-bis(PamO)-4-THT-Glu-Gly-D-Glu-OH”, the step yield (late stage modification step) is reported as 98%.
“(2R,6R)-2-hexanoylamino-6-hexanoyloxy-7-PamO-4-THT-Gly-Gly-Gly-Glu (O^t Bu)-O^t Bu” showed a step yield (lipidation step) of 88%.
“(2R,6R)-2-hexanoylamino-6-hexanoyloxy-7-PamO-4-THT-Gly-Gly-Gly-Glu-OH” showed a step yield (late stage modification step) of 95%.
For “(2R,6S)-2-Fmoc-amino-6,7-bis(PamO)-4-THT-Gly-Gly-Gly-Glu-(O^t Bu)-Thr(^t Bu)-Thr(^t Bu)-O^t Bu”, the step yield (lipidation step) was 97%.
In the case of “(2R,6S)-2-amino-6,7-bis (PamO)-4-THT-Gly-Gly-Gly-Glu(O^t Bu)-Thr(^t Bu)-Thr(^t Bu)-O^t Bu”, the step yield (late stage modification step) is reported as 90%.
“H-Gly-Gly-Gly-Glu(O^t Bu)-Thr(^t Bu)-Thr(^t Bu)-O^t Bu” showed a step yield (late stage modification step) of 98%.
In the case of “Z-Gly-Gly-Gly-Glu(O^t Bu)-Thr(^t Bu)-O^t Bu”, the step yield (coupling step) is reported as 85%.
For “Z-Gly-Gly-Gly-Glu(O^t Bu)-Thr(^t Bu)-Thr(^t Bu)-O^Bu”, the step yield (coupling step) was 75.4%.
